Test results taken from patent US8394969B2, “Cyclic benzimidazole derivatives useful as anti-diabetic agents” (Merck Sharp & Dohme Corp., priority 2008, dated 2013).
Where a name gives a salt, the structure may show the parent alone. Some results were stated once for a whole list of compounds, not compound by compound.

Amino acid sequences for entries named in this document (tags omitted). A change or cut given only in a name is not applied to a line headed by its entry.
UniProt Q13131: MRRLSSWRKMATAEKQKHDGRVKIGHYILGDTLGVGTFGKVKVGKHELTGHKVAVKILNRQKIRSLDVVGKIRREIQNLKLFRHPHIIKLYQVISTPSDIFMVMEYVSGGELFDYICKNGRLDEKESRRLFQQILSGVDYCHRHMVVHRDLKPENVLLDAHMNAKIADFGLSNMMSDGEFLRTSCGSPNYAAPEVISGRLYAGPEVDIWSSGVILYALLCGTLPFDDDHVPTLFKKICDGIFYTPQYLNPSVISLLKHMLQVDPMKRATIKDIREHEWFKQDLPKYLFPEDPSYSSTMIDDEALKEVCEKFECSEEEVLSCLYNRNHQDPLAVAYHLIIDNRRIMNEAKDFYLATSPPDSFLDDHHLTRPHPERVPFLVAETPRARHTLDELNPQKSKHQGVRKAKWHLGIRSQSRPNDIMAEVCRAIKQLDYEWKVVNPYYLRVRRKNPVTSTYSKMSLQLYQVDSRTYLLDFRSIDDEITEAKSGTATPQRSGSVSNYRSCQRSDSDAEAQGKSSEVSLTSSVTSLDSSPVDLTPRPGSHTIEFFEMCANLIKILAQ
UniProt Q9Y478: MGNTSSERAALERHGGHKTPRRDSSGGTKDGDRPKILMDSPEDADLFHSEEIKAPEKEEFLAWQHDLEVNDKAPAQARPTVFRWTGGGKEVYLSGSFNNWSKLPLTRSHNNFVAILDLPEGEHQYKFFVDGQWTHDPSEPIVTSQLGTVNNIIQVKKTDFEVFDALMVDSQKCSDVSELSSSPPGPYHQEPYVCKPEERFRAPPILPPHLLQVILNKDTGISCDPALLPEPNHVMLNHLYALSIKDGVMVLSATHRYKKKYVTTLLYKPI

Target: recombinant human AMPK complex 1 (containing α1β1γ1) (Homo sapiens, UniProt Q13131+Q9Y478)
Assay: […] (in vitro AMPK activation assay)
Format: biochemical
Settings: recombinant human AMPK complex 1 (α1β1γ1)

CCCCc1ccc(-c2cc3nc(Oc4ccc(C)c(C(=O)O)c4)[nH]c3cc2Cl)cc1 [Example 344, Ammonium 5-{[5-(4-butylphenyl)-6-chloro-1H-benzimidazol-2-yl]oxy}-2-methylbenzoate]
EC50: < 10 µM

COc1ccc(-c2cc3nc(Oc4ccc(C)c(C(=O)O)c4)[nH]c3cc2Cl)cc1 [Example 345, Ammonium 5-{[6-chloro-5-(4-methoxyphenyl)-1H-benzimidazol-2-yl]oxy}-2-methylbenzoate]
EC50: < 10 µM

Cc1ccc(Oc2nc3cc(-c4cccc(N(C)C)c4)c(Cl)cc3[nH]2)cc1C(=O)O [Example 346, Ammonium 5-({6-chloro-5-[3-(dimethylamino)phen-yl]-1H-benzimidazol-2-yl}oxy)-2-methylbenzoate]
EC50: < 10 µM

CCCc1ccc(-c2cc3nc(Oc4ccc(C)c(C(=O)O)c4)[nH]c3cc2Cl)cc1 [Example 347, 2-(3-carboxy-4-methylphenoxy)-6-chloro-5-(4-propylphenyl)-1H-3,1-benzimidazol-3-ium trifluoroacetate]
EC50: < 10 µM

Cc1ccc(Oc2nc3cc(-c4ccc5c(c4)c(C#N)cn5C)c(Cl)cc3[nH]2)cc1C(=O)O [Example 349, 2-(3-carboxy-4-methylphenoxy)-6-chloro-5-(3-cyano-1-methyl-1H-indol-5-yl)-1H-3,1-benzimidazol-3-ium trifluoroacetate]
EC50: < 10 µM

Cc1ccc(Oc2nc3cc(-c4ccc(N5CCCC5=O)cc4)c(Cl)cc3[nH]2)cc1C(=O)O [Example 350, 2-(3-carboxy-4-methylphenoxy)-6-chloro-5-[4-(2-oxopyrrolidin-1-yl)phenyl]-1H-3,1-benzimidazol-3-ium trifluoroacetate]
EC50: < 10 µM

Cc1ccc(Oc2nc3cc(-c4ccc5c(ccn5CC(F)(F)F)c4)c(Cl)cc3[nH]2)cc1C(=O)O [Example 351, 5-{6-Chloro-5-[1-(2,2,2-trifluoro-ethyl)-1H-indol-5-yl]-1H-benzoimidazol-2-yloxy}-2-methyl-benzoic acid]
EC50: < 10 µM

Cc1ccc(Oc2nc3cc(-c4ccc(C(C)C)cc4)c(Cl)cc3[nH]2)cc1C(=O)O [Example 352, 5-[6-Chloro-5-(4-isopropyl-phenyl)-1H-benzoimidazol-2-yloxy]-2-methyl-benzoic acid]
EC50: < 10 µM

Cc1ccc(Oc2nc3cc(-c4ccc5c(c4)c(CN(C)C)cn5C)c(Cl)cc3[nH]2)cc1C(=O)O [Example 353, 5-[6-Chloro-5-(3-dimethylaminomethyl-1-methyl-1H-indol-5-yl)-1H-benzoimidazol-2-yloxy]-2-methyl-benzoic acid]
EC50: < 10 µM

Cc1ccc(Oc2nc3cc(-c4nc5ccccc5s4)c(Cl)cc3[nH]2)cc1C(=O)O [Example 354, 5-(5-Benzothiazol-2-yl-6-chloro-1H-benzoimidazol-2-yloxy)-2-methyl-benzoic acid]
EC50: < 10 µM

Cc1ccc(Oc2nc3cc(-c4cc5ccccc5s4)c(Cl)cc3[nH]2)cc1C(=O)O [Example 355, 5-(5-Benzo[b]thiophen-2-yl-6-chloro-1H-benzoimidazol-2-yloxy)-2-methyl-benzoic acid]
EC50: < 10 µM

Cc1ccc(Oc2nc3cc(-c4cc5ccccc5o4)c(Cl)cc3[nH]2)cc1C(=O)O [Example 356, 5-(5-Benzofuran-2-yl-6-chloro-1H-benzoimidazol-2-yloxy)-2-methyl-benzoic acid]
EC50: < 10 µM

Cc1ccc(Oc2nc3cc(-c4ccc(C5CCCCC5)cc4)c(Cl)cc3[nH]2)cc1C(=O)O [Example 357, 5-[6-Chloro-5-(4-cyclohexyl-phenyl)-1H-benzoimidazol-2-yloxy]-2-methyl-benzoic acid]
EC50: < 10 µM

Cc1ccc(Oc2nc3cc(-c4ccc5c(c4)C(C)(C)CCC5(C)C)c(Cl)cc3[nH]2)cc1C(=O)O [Example 358, 5-[6-Chloro-5-(5,5,8,8-tetramethyl-5,6,7,8-tetrahydro-naphthalen-2-yl)-1H-benzoimidazol-2-yloxy]-2-methyl-benzoic acid]
EC50: < 10 µM

Cc1ccc(Oc2nc3cc(-c4ccc(-c5ccccc5)s4)c(Cl)cc3[nH]2)cc1C(=O)O [Example 359, 5-{6-Chloro-5-(5-phenyl-thiophen-2-yl)-1H-benzoimidazol-2-yloxy}-2-methyl-benzoic acid]
EC50: < 10 µM

Cc1ccc(Oc2nc3cc(-c4ccc5c(c4)OCCO5)c(Cl)cc3[nH]2)cc1C(=O)O [Example 360, 5-[6-Chloro-5-(2,3-dihydro-benzo[1,4]dioxin-6-yl)-1H-benzoimidazol-2-yloxy]-2-methyl-benzoic acid]
EC50: < 10 µM

Cc1ccc(Oc2nc3cc(-c4sc(-c5ccccc5)nc4C)c(Cl)cc3[nH]2)cc1C(=O)O [Example 361, 5-[6-chloro-5-(4-methyl-2-phenyl-thiazol-5-yl)-1H-benzoimidazol-2-yloxy]-2-methyl-benzoic acid]
EC50: < 10 µM

Cc1ccc(Oc2nc3cc(-c4ccc5c(c4)N(C)CCN5C)c(Cl)cc3[nH]2)cc1C(=O)O [Example 362, 5-[6-chloro-5-(1,4-dimethyl-1,2,3,4-tetrahydro-quinoxalin-6-yl)-1H-benzoimidazol-2-yloxy]-2-methyl-benzoic acid]
EC50: < 10 µM

Cc1ccc(Oc2nc3cc(-c4ccc(OC(F)(F)F)cc4)c(Cl)cc3[nH]2)cc1C(=O)O [Example 363, Ammonium 5-({6-chloro-5-[4-(trifluoromethoxy)phenyl]-1H-benzimidazol-2-yl}oxy)-2-methylbenzoate]
EC50: < 10 µM

Cc1ccc(Oc2nc3cc(-c4ccc(OC(F)(F)F)cc4)c(Cl)cc3[nH]2)cc1C(=O)O [Example 364, 5-[6-Chloro-5-(4-trifluoromethoxy-phenyl)-1H-benzoimidazol-2-yloxy]-2-methyl-benzoic acid]
% Maximum AMP Activation of human AMPK Complex 1 (basal activity subtracted): greater than 80%

Cc1ccc(Oc2nc3cc(-c4ccc(-c5ccccc5)cc4)c(F)cc3[nH]2)cc1C(=O)O [Example 365, 5-[(5-biphenyl-4-yl-6-fluoro-1H-benzimidazol-2-yl)oxy]-2-methylbenzoic acid]
EC50: < 10 µM
